Data: the supplement of paper PMC12823440, “Inhibitors supercharge kinase turnover through native proteolytic circuits” (Nature, 2025)
The other results are listed elsewhere or left out. The calls rarely recur for the same compound in another form.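 In K562 cells expressing nanoluciferase-fused kinases, luminescence was recorded at 4 h intervals between 2 and 18 h, normalized as percent of control with DMSO at 100% and a positive control at 0%. A significant (2 sigma) signal drop marks a time point as decreased. The authors' rule for a hit is not shown and takes in more than the number of time points.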

Chains of the proteins cited; added tags and fusions are not shown. Lines headed by an entry give the natural chain unless they say otherwise; changes in a name come on top.
UniProt Q8IWU2: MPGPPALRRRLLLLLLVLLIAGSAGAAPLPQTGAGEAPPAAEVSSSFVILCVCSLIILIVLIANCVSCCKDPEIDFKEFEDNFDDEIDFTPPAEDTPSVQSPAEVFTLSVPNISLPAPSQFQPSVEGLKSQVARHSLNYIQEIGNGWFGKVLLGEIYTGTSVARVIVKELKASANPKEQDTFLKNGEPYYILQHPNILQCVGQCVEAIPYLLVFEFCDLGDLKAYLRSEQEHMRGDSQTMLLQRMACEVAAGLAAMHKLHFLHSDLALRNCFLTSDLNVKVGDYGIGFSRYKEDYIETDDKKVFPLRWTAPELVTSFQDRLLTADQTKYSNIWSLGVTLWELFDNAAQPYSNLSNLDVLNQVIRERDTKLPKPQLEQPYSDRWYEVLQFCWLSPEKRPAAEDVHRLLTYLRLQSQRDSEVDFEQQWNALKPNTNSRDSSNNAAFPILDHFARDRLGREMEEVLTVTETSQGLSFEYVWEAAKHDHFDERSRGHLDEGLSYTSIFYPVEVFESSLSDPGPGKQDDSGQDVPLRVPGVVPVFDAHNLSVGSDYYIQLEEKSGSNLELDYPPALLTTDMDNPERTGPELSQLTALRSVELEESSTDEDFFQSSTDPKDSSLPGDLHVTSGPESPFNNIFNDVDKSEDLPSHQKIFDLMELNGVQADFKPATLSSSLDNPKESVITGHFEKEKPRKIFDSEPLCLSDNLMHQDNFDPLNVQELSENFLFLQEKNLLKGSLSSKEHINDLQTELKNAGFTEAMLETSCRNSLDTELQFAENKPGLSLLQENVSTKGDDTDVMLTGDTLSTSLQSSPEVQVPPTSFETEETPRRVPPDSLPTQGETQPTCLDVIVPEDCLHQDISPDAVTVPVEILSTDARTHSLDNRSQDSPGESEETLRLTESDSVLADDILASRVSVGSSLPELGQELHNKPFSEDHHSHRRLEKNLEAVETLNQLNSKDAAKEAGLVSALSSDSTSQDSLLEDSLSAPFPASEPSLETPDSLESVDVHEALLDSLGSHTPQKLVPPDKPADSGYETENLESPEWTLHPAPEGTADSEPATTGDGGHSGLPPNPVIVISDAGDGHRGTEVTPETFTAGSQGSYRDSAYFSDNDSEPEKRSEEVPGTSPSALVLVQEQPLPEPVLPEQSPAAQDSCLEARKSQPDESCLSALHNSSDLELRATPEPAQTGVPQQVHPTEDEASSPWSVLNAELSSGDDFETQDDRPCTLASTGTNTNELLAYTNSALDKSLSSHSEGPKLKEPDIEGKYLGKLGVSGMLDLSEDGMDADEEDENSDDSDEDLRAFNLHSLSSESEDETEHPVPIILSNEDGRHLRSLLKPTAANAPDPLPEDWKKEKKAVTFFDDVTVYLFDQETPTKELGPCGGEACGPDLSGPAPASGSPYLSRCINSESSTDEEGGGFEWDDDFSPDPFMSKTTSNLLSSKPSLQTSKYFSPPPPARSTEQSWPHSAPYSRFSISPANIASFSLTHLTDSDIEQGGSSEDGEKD
UniProt Q9BRS2: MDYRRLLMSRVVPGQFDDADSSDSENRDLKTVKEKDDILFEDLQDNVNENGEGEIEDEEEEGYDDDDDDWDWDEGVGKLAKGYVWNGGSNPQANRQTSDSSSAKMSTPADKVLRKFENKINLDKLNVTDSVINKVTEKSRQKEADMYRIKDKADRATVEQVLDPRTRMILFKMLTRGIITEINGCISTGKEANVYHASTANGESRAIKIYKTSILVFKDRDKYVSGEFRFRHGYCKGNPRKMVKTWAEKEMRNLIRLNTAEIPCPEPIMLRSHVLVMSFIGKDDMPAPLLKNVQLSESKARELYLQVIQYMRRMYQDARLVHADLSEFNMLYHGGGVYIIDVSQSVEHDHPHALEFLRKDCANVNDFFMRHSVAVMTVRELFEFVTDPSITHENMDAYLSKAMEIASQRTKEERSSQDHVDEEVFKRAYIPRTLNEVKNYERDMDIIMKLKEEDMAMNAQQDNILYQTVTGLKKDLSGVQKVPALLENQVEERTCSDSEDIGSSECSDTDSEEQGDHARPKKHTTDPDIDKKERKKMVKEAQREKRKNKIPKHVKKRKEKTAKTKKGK
UniProt P42356, whole entry, looked up: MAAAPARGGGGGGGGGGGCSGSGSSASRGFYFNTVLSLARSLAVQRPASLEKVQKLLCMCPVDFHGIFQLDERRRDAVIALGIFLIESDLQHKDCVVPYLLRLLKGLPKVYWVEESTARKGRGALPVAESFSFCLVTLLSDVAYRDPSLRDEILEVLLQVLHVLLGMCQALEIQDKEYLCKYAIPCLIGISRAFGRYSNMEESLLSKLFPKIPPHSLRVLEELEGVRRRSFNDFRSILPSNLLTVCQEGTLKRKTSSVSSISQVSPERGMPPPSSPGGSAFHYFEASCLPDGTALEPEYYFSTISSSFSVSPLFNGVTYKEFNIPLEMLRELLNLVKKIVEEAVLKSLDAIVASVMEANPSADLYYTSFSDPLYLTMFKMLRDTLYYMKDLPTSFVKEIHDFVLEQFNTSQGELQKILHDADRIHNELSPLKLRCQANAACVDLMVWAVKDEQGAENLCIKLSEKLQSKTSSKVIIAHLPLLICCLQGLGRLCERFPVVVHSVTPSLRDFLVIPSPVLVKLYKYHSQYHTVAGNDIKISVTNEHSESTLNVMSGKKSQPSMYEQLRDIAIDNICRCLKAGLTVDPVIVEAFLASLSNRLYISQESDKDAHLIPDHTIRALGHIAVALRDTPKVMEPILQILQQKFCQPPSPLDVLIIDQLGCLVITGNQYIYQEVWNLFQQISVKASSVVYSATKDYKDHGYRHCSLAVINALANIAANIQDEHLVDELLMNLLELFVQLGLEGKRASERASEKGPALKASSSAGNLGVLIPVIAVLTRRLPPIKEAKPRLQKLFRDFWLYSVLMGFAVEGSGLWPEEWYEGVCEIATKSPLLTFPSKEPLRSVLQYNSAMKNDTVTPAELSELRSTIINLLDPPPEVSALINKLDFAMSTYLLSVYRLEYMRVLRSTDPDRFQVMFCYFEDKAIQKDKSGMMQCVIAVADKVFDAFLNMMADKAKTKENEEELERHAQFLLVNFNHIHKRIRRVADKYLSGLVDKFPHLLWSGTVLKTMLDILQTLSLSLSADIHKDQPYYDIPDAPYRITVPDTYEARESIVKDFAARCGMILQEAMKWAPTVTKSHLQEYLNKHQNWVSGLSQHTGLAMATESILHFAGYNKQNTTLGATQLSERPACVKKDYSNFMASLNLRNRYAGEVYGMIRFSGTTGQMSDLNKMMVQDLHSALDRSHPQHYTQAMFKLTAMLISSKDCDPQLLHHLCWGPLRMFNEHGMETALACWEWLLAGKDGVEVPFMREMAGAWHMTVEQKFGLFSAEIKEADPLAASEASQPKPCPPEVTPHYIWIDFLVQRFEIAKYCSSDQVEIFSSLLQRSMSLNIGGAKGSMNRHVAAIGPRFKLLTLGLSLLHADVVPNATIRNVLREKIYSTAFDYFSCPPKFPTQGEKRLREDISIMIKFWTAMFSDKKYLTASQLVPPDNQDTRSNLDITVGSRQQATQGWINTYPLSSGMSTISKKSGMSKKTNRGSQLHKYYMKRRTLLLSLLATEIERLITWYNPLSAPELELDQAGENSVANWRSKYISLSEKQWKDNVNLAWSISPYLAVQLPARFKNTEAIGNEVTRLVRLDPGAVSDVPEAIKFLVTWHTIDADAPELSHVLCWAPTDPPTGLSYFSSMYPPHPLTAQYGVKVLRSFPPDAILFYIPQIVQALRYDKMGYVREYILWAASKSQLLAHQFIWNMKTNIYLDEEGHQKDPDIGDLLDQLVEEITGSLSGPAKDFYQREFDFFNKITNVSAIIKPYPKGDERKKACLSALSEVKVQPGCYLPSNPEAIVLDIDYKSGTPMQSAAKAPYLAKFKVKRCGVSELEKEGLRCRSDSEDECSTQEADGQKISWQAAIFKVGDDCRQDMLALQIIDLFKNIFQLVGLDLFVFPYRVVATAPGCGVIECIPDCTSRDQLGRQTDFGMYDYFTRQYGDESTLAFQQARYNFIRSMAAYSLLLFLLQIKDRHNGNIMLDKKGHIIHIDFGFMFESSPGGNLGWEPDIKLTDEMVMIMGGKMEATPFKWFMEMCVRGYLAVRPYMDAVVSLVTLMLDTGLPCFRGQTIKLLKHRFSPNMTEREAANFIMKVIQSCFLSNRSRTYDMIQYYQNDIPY
UniProt Q13131: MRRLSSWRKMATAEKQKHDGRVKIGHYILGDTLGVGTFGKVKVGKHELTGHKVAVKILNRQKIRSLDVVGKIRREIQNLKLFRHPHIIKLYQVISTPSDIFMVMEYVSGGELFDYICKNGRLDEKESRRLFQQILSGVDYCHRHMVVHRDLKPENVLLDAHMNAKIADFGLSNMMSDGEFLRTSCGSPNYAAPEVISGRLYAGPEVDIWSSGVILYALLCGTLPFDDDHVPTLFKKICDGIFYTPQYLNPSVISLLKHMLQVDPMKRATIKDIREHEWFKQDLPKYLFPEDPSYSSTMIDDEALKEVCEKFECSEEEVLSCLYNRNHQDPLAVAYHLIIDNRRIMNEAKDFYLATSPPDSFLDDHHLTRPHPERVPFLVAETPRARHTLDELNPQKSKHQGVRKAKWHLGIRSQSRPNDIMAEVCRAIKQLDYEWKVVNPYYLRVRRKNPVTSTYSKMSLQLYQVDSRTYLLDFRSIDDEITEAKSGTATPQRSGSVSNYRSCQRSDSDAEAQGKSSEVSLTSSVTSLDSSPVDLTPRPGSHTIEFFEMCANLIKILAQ
UniProt Q16620, whole entry, looked up: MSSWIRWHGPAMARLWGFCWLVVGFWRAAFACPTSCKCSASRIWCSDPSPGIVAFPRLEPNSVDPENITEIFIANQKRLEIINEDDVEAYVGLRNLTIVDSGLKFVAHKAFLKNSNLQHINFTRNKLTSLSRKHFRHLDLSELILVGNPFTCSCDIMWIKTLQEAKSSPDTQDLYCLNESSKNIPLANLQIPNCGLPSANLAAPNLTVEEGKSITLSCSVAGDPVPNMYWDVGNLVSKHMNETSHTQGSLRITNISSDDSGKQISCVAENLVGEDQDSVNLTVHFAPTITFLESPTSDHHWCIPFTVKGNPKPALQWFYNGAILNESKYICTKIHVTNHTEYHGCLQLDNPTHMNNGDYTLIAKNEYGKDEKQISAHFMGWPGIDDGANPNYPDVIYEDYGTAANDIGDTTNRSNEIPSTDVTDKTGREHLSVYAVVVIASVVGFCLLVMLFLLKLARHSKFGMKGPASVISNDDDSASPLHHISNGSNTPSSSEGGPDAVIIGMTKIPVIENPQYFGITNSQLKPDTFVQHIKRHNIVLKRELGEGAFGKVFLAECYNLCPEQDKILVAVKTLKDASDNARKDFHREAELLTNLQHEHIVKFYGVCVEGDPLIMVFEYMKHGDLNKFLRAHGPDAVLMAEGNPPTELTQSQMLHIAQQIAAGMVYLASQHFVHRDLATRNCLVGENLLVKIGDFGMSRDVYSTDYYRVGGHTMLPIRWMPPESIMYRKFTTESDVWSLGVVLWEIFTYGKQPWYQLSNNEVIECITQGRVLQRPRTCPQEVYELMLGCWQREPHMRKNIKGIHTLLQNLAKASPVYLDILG
UniProt Q9UQM7, whole entry: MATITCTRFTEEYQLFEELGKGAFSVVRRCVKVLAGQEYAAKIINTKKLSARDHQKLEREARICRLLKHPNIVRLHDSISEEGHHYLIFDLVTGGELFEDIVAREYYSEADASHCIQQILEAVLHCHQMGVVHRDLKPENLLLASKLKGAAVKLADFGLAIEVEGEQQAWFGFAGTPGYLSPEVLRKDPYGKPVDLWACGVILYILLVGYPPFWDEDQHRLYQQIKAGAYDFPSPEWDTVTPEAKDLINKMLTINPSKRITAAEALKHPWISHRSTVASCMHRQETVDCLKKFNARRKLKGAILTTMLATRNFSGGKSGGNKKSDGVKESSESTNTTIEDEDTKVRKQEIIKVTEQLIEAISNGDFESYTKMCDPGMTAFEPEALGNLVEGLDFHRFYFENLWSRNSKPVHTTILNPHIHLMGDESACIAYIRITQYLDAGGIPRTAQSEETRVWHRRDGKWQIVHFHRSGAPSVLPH
UniProt P28482, whole entry: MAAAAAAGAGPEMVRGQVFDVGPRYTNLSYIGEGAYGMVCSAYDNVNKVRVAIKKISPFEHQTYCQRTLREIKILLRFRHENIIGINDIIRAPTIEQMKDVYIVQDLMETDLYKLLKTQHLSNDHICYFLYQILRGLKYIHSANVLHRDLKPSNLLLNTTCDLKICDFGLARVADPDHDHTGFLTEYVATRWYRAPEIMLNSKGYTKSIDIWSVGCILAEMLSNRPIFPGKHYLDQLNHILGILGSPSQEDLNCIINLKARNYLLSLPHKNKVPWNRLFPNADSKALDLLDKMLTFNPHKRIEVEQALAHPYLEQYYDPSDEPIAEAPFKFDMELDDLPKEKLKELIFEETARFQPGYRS

Key:
Experiment in all cases: number of time points (of 5) at which kinase-Nluc abundance scored as decreased, DMSO-normalised (count); higher = more persistent destabilization
Lorlatinib = compound: C[C@H]1Oc2cc(cnc2N)-c2c(nn(C)c2C#N)CN(C)C(=O)c2ccc(F)cc21 [Lorlatinib]; settings: 10 µM; K562; 2-18 h
[1] = compound: Cc1[nH]c(/C=C2\C(=O)Nc3ccc(F)cc32)c(C)c1C(=O)NC[C@H](O)CN1CCOCC1; settings: 2.5 µM; K562; 2-18 h
[2] = compound: Cc1cc(C)n2c1C=C1C=CC(CCC(=O)NCCN3CCN(C/C=C/C(=O)N4CCCC(n5nc(-c6ccc(Oc7ccccc7)cc6)c6c(N)ncnc65)C4)CC3)=[N+]1[B-]2(F)F; settings: 2.5 µM; K562; 2-18 h
ENMD-2076 (Tartrate) = compound: Cc1cc(Nc2cc(N3CCN(C)CC3)nc(/C=C/c3ccccc3)n2)n[nH]1 [ENMD-2076 (Tartrate)]; settings: 2.5 µM; K562; 2-18 h
[3] = compound: Cc1cc(Nc2cc(N3CCN(C)CC3)nc(/C=C/c3ccccc3)n2)n[nH]1; settings: 2.5 µM; K562; 2-18 h
Brivanib = compound: Cc1cc2c(F)c(Oc3ncnn4cc(OC[C@@H](C)O)c(C)c34)ccc2[nH]1 [Brivanib]; settings: 10 µM; K562; 2-18 h
[4] = compound: Cc1cc2ncnn2cc1Nc1ncc2c(n1)n(C1CCOCC1)c(=O)n2C; settings: 10 µM; K562; 2-18 h
Doramapimod = compound: Cc1ccc(-n2nc(C(C)(C)C)cc2NC(=O)Nc2ccc(OCCN3CCOCC3)c3ccccc23)cc1 [Doramapimod]; settings: 10 µM; K562; 2-18 h
[5] = compound: Cc1ccc(Nc2nccc(N(C)c3ccc4c(C)n(C)nc4c3)n2)cc1S(N)(=O)=O [Pazopanib (Hydrochloride)]; settings: 10 µM; K562; 2-18 h
Pazopanib = compound: Cc1ccc(Nc2nccc(N(C)c3ccc4c(C)n(C)nc4c3)n2)cc1S(N)(=O)=O [Pazopanib]; settings: 10 µM; K562; 2-18 h
Lck inhibitor 2 = compound: Cc1ccc(O)cc1Nc1ccnc(Nc2cccc(C(N)=O)c2)n1 [Lck inhibitor 2]; settings: 10 µM; K562; 2-18 h
Vadimezan = compound: Cc1ccc2c(=O)c3cccc(CC(=O)O)c3oc2c1C [Vadimezan]; settings: 10 µM; K562; 2-18 h
Nilotinib = compound: Cc1cn(-c2cc(NC(=O)c3ccc(C)c(Nc4nccc(-c5cccnc5)n4)c3)cc(C(F)(F)F)c2)cn1 [Nilotinib]; settings: 2.5 µM; K562; 2-18 h
[6] = compound: Cc1cnc(Nc2ccc(OCCN3CCCC3)cc2)nc1Nc1cccc(S(=O)(=O)NC(C)(C)C)c1 [Fedratinib (hydrochloride hydrate)]; settings: 2.5 µM; K562; 2-18 h
Fedratinib = compound: Cc1cnc(Nc2ccc(OCCN3CCCC3)cc2)nc1Nc1cccc(S(=O)(=O)NC(C)(C)C)c1 [Fedratinib]; settings: 2.5 µM; K562; 2-18 h
Dasatinib = compound: Cc1nc(Nc2ncc(C(=O)Nc3c(C)cccc3Cl)s2)cc(N2CCN(CCO)CC2)n1 [Dasatinib]; settings: 2.5 µM; K562; 2-18 h
[7] = compound: Cn1cc(/C=C2\C(=O)Nc3cccnc32)c2ccccc21; settings: 10 µM; K562; 2-18 h
[8] = compound: Fc1ccc(-c2nc(-c3ccc4ccccc4c3F)[nH]c2-c2ccncc2)cc1; settings: 10 µM; K562; 2-18 h
[9] = compound: Cc1ccccc1-n1c(Cn2nc(-c3cccc(O)c3)c3c(N)ncnc32)nc2cccc(C)c2c1=O; settings: 10 µM; K562; 2-18 h
[10] = compound: Cc1nc2c(-c3cnc(N)nc3)nc(N3CCOCC3)nc2n1C(C)C; settings: 2.5 µM; K562; 2-18 h

Target | number of time points (Lorlatinib) | number of time points [1] | number of time points [2] | number of time points (ENMD-2076 (Tartrate)) | number of time points [3] | number of time points (Brivanib) | number of time points [4] | number of time points (Doramapimod) | number of time points [5] | number of time points (Pazopanib) | number of time points (Lck inhibitor 2) | number of time points (Vadimezan) | number of time points (Nilotinib) | number of time points [6] | number of time points (Fedratinib) | number of time points (Dasatinib) | number of time points [7] | number of time points [8] | number of time points [9] | number of time points [10]
INSRR (UniProt P14616) | 0 | 0 | 0 | 0 | 0 | 0 | 0 | 0 | 0 | 0 | 1 | 0 | 3 | 0 | 0 | 2 | 0 | 4 |  | 
CDK3 (UniProt Q00526) | 0 | 0 | 0 | 0 | 0 | 0 | 0 | 0 | 0 | 0 | 0 | 0 | 0 | 0 | 0 | 0 | 0 | 0 |  | 
BRAF_V600E | 0 | 0 | 0 | 0 | 0 | 0 | 0 | 0 | 0 | 1 | 0 | 0 | 2 | 0 | 0 | 2 | 0 | 5 | 0 | 2
RAF1_S257L (clone: RAF1_mut) (UniProt P04049) | 0 | 0 | 0 | 0 | 0 | 0 | 0 | 0 | 3 | 0 | 1 | 0 | 3 | 0 | 0 | 4 | 0 | 1 |  | 
STK24 (UniProt Q9Y6E0) | 0 | 0 | 0 | 0 | 0 | 0 | 0 | 0 | 0 | 0 | 0 | 0 | 3 | 0 | 0 | 0 | 0 | 0 |  | 
LMTK2 (UniProt Q8IWU2) | 0 | 0 | 0 | 0 | 0 | 0 | 0 | 0 | 0 | 0 | 0 | 0 | 1 | 0 | 0 | 1 | 0 | 4 |  | 
ERN1 (UniProt O75460) | 0 | 0 | 0 | 0 | 0 | 0 | 0 | 0 | 0 | 0 | 0 | 0 | 1 | 0 | 0 | 1 | 0 | 0 |  | 
PLK1 (UniProt P53350) | 0 | 0 | 0 | 0 | 0 | 0 | 0 | 0 | 0 | 0 | 0 | 0 | 2 | 0 | 0 | 2 | 0 | 0 |  | 
PDPK1 (UniProt O15530) | 0 | 0 | 0 | 0 | 0 | 0 | 0 | 0 | 0 | 0 | 0 | 0 | 4 | 0 | 0 | 3 | 0 | 0 |  | 
IRAK3 (UniProt Q9Y616) | 0 | 0 | 0 | 0 | 0 | 0 | 0 | 0 | 0 | 0 | 0 | 0 | 2 | 0 | 0 | 2 | 0 | 0 |  | 
PBK (UniProt Q96KB5) | 0 | 0 | 0 | 0 | 0 | 0 | 0 | 0 | 0 | 0 | 0 | 0 | 0 | 0 | 0 | 0 | 0 | 0 |  | 
MKNK1 (UniProt Q9BUB5) | 0 | 0 | 0 | 0 | 0 | 0 | 0 | 0 | 0 | 0 | 0 | 0 | 1 | 0 | 0 | 2 | 0 | 4 |  | 
RIOK1 (UniProt Q9BRS2) | 0 | 0 | 0 | 0 | 0 | 0 | 0 | 0 | 0 | 0 | 0 | 0 | 2 | 0 | 0 | 2 | 0 | 4 |  | 
ERBB3 (UniProt P21860) | 0 | 0 | 0 | 0 | 0 | 0 | 0 | 0 | 0 | 0 | 0 | 0 | 4 | 0 | 0 | 3 | 0 | 4 |  | 
ERBB4_R711C (clone: ERBB4_mut) (UniProt Q15303) | 0 | 0 | 0 | 0 | 1 | 0 | 0 | 0 | 0 | 0 | 0 | 0 | 2 | 0 | 0 | 3 | 0 | 4 |  | 
PIK4CA (UniProt P42356) | 0 | 0 | 0 | 0 | 0 | 0 | 0 | 0 | 0 | 0 | 0 | 0 | 3 | 0 | 0 | 2 | 0 | 2 |  | 
ULK3 (UniProt Q6PHR2) | 0 | 0 | 0 | 0 | 0 | 0 | 0 | 0 | 0 | 0 | 1 | 0 | 4 | 0 | 0 | 3 | 0 | 4 |  | 

Target | number of time points (Lorlatinib) | number of time points [1] | number of time points [2] | number of time points (ENMD-2076 (Tartrate)) | number of time points [3] | number of time points (Brivanib) | number of time points [4] | number of time points (Doramapimod) | number of time points [5] | number of time points (Pazopanib) | number of time points (Lck inhibitor 2) | number of time points (Vadimezan) | number of time points (Nilotinib) | number of time points [6] | number of time points (Fedratinib) | number of time points (Dasatinib) | number of time points [7] | number of time points [8] | number of time points [9] | number of time points [10]
YES1 (UniProt P07947) | 0 | 0 | 0 | 0 | 0 | 0 | 0 | 0 | 0 | 0 | 0 | 0 | 1 | 0 | 0 | 3 | 0 | 0 |  | 
PRKAA1 (UniProt Q13131) | 0 | 0 | 0 | 0 | 0 | 0 | 0 | 0 | 0 | 0 | 0 | 0 | 2 | 0 | 0 | 1 | 0 | 4 |  | 
SPHK1 (UniProt Q9NYA1) | 0 | 0 | 0 | 0 | 0 | 0 | 0 | 0 | 0 | 0 | 0 | 0 | 1 | 0 | 0 | 0 | 0 | 0 |  | 
DYRK2 (UniProt Q92630) | 0 | 0 | 0 | 2 | 0 | 0 | 0 | 0 | 0 | 0 | 3 | 0 | 3 | 0 | 0 | 3 | 0 | 4 |  | 
CSNK1A1 (UniProt P48729) | 0 | 0 | 0 | 0 | 0 | 0 | 0 | 0 | 0 | 0 | 0 | 0 | 4 | 0 | 0 | 1 | 0 | 0 |  | 
NTRK2 (UniProt Q16620) | 0 | 0 | 0 | 0 | 0 | 0 | 0 | 0 | 0 | 0 | 0 | 0 | 2 | 0 | 0 | 1 | 0 | 0 |  | 
HER2 (UniProt P04626) | 0 | 0 | 0 | 0 | 0 | 0 | 0 | 0 | 0 | 0 | 0 | 0 | 2 | 0 | 0 | 1 | 0 | 5 |  | 
ARAF (UniProt P10398) | 0 | 0 | 0 | 0 | 0 | 0 | 0 | 0 | 0 | 0 | 0 | 0 | 0 | 0 | 0 | 0 | 0 | 0 |  | 
CDK10 (UniProt Q15131) | 0 | 0 | 0 | 0 | 0 | 0 | 0 | 0 | 0 | 0 | 0 | 0 | 1 | 0 | 0 | 1 | 0 | 5 |  | 
CDK6 (UniProt Q00534) | 0 | 5 | 0 | 0 | 0 | 0 | 0 | 0 | 0 | 0 | 0 | 0 | 2 | 0 | 0 | 0 | 0 | 0 |  | 
GSK3A (UniProt P49840) | 0 | 0 | 0 | 0 | 0 | 0 | 0 | 0 | 0 | 0 | 0 | 0 | 1 | 0 | 0 | 0 | 0 | 0 |  | 
CAMK2A (UniProt Q9UQM7) | 0 | 1 | 0 | 0 | 0 | 0 | 0 | 0 | 0 | 0 | 0 | 0 | 0 | 0 | 0 | 0 | 0 | 0 |  | 
DYRK1B (UniProt Q9Y463) | 0 | 0 | 0 | 0 | 0 | 0 | 0 | 0 | 0 | 0 | 0 | 0 | 1 | 0 | 0 | 1 | 0 | 0 |  | 
MAPK1 (UniProt P28482) | 0 | 0 | 0 | 0 | 0 | 0 | 0 | 0 | 0 | 0 | 0 | 0 | 2 | 0 | 0 | 0 | 0 | 0 |  | 
ROR2 (UniProt Q01974) | 0 | 0 | 0 | 0 | 0 | 0 | 0 | 0 | 0 | 0 | 0 | 0 | 1 | 0 | 0 | 0 | 0 | 0 |  | 
CHEK2 (UniProt O96017) | 0 | 0 | 0 | 0 | 0 | 0 |  | 0 | 0 | 0 | 0 | 0 | 2 | 0 | 0 | 1 | 0 | 0 |  | 

Already shown: entries from further up.
Target | number of time points (Lorlatinib) | number of time points [1] | number of time points [2] | number of time points (ENMD-2076 (Tartrate)) | number of time points [3] | number of time points (Brivanib) | number of time points [4] | number of time points (Doramapimod) | number of time points [5] | number of time points (Pazopanib) | number of time points (Lck inhibitor 2) | number of time points (Vadimezan) | number of time points (Nilotinib) | number of time points [6] | number of time points (Fedratinib) | number of time points (Dasatinib) | number of time points [7] | number of time points [8] | number of time points [9] | number of time points [10]
PBK (UniProt Q96KB5) | 0 | 0 | 0 | 0 | 0 | 0 | 0 | 0 | 0 | 0 | 0 | 0 | 0 | 0 | 0 | 0 | 0 | 0 |  | 
MKNK1 (UniProt Q9BUB5) | 0 | 0 | 0 | 0 | 0 | 0 | 0 | 0 | 0 | 0 | 0 | 0 | 1 | 0 | 0 | 2 | 0 | 4 |  | 
